Some of the results follow.

For the assay, the system named is T1, CTL2-GFP (C. trachomatis L2/434/Bu, GFP-expressing).
T1 construct: L2/434/Bu, GFP-expressing
On the set-up: species or system HeLa; Intracellular C. trachomatis growth in HeLa cells, bulk GFP fluorescence relative to DMSO. Conditions: bulk GFP, single well; 28.5 h, 10 µM; inhibitor.
For the compound `Fc1cc2c3c(c1)c1c(n3CCC2)CCNCC1` [CBK018406C], the “% of control remaining” value is on record as 108.269%.

As for `Cc1noc(C)c1CC(=O)N1[C@H]2CCCCCN(C)[C@@]2(C)C[C@H]1c1ccccc1` [CBK286094], the “% of control remaining” value was 111.381%.

On to `COc1ccc(CN(C)C(=O)CCc2c(C)nc3c(cnn3C(C)C)c2C)cc1` [CBK297087], for which the “% of control remaining” value is on record as 174.591%.

Regarding `CC(=O)N[C@H](C)Cn1nnc2ccccc21` [CBK282246], the “% of control remaining” value stood at 112.318%.

As to `O=C(Cc1cccnc1)N1CCC(c2cccc(Cc3ccc(C(F)(F)F)cc3)n2)CC1` [CBK286223], the “% of control remaining” value was 92.8714%.

With `O=C(CSCc1c(Cl)cccc1Cl)NN1C(=O)c2ccccc2C1=O` [CBK267800], the “% of control remaining” value came out at 105.634%.

With `O=c1[nH]c2ccc(NC(=S)NCc3ccccc3)cc2[nH]1` [CBK296099], the “% of control remaining” value stood at 146.66%.

As for `CC(C)(C)S(=O)(=O)c1ccc(C(=O)O)s1` [CBK260880], the “% of control remaining” value is 108.735%.

With `O=S(=O)(c1ccc(Cl)c(Cl)c1)N1CCOCC1` [CBK043794], the “% of control remaining” value came to 112.148%.

As to `CC(C)(C)C(=O)N1CCC(n2nc(-c3ccco3)ccc2=O)CC1` [CBK282341], the “% of control remaining” value was found to be 138.748%.

For `CN(C)c1cccc(Nc2ccc(-c3ccco3)cn2)c1` [CBK036885], the “% of control remaining” value came to 207.429%.

`Cc1cc(C)nc(NC(=N)NCCc2c[nH]c3ccccc23)n1` [CBK266321]: the “% of control remaining” value was determined as 46.5163%.

Turning to `COCc1nc2n(n1)CC(NC1CCc3ccccc3CC1)CC2` (centres unmarked) [CBK304737], the “% of control remaining” value was found to be 112.32%.

As to `CC(Oc1ccc(F)cc1)C(=O)NCCN1CCOCC1` (centres unmarked) [CBK265508], the “% of control remaining” value is on record as 130.959%.

For `Cc1oc2c(c1C(=O)NC(C)c1ccccn1)CCCC2` (centres unmarked) [CBK281825], the “% of control remaining” value is recorded as 130.095%.

Turning to `COc1ccc(-c2cc(NCc3cc(OC)c(OC)c(OC)c3)ncn2)cc1` [CBK091184], the “% of control remaining” value came out at 136.398%.

On to `Nc1ncc(-c2ccsc2)nc1-c1ccc(O)cc1` [CBK115631], for which the “% of control remaining” value was 104.693%.

Take `CSc1nnc(-c2ccccc2O)n1CCc1ccccc1` [CBK076668]: the “% of control remaining” value was 116.826%.

Consider `COc1ccc(-c2cc3cccnc3n2CC(=O)NC(C)(C)C)cc1` [CBK285381], for which the “% of control remaining” value is listed as 88.873%.

Consider `CC(C)(N)CC(=O)N1CCC(Cn2cncn2)(C2CCCCC2)CC1` [CBK136822], for which the “% of control remaining” value amounted to 77.9162%.

As for `CC(=O)Nc1cccc(C(=O)NCC(c2cccs2)N(C)C)c1` (centres unmarked) [CBK304583], the “% of control remaining” value was 116.461%.

As to `COc1ccc(/C=N/NC(=O)Cc2cccn2C)cc1[N+](=O)[O-]` [CBK262789], the “% of control remaining” value is 116.918%.

For `Cc1cc(C(=O)N2CCC(N3C(=O)OCC3(C)C)CC2)n(C(C)(C)C)n1` [CBK044233], the “% of control remaining” value was 130.513%.

For the compound `CN1CCN(Cc2nc3c(c(=O)n(C)c(=O)n3C)n2CCc2ccccc2)CC1` [CBK269507], the “% of control remaining” value was 112.309%.

Regarding `CC(C)c1cc(C(=O)N2CCCCCC2c2ccn(C)n2)no1` (centres unmarked) [CBK283048], the “% of control remaining” value was determined as 123.919%.

In the case of `FC(F)(F)c1ccc(CN2CCN(c3nccnc3OCc3cccnc3)CC2)cc1` [CBK083133T], the “% of control remaining” value is listed as 83.9503%.

Turning to `COc1ccc(-c2ccc3n(c2=O)C[C@H]2C[C@@H]3CN(C(=O)c3ccncc3)C2)cc1` [CBK289178], the “% of control remaining” value is given as 115.895%.

As for `CC(NC(=O)Cc1cccs1)c1nc2cccnc2n1C(C)C` (centres unmarked) [CBK283828], the “% of control remaining” value stood at 142.273%.

Turning to `CCOC(=O)c1cn(CC)c2cc(F)c(OCC)cc2c1=O` [CBK307139], the “% of control remaining” value was found to be 155.603%.

In the case of `CCN(CC(=O)N1CCN(C)CC1)S(=O)(=O)c1ccc(OC)cc1` [CBK269374], the “% of control remaining” value was 144.737%.

Regarding `CN(C)CC(=O)NC(Cc1cccs1)c1nccs1` (centres unmarked) [CBK285061], the “% of control remaining” value came out at 135.237%.

On to `COc1cc(C)c(Nc2cc(-c3ccc(F)c(F)c3)ncn2)cc1OC` [CBK090787], for which the “% of control remaining” value is listed as 112.746%.

With `Cc1cc(N2CCCC2)c(F)cc1CN1CCC(CO)C1` (centres unmarked) [CBK282916], the “% of control remaining” value came to 107.098%.

Consider `O=C(c1ccc([N+](=O)[O-])cc1Cl)N1CCN(Cc2ccccc2)CC1` [CBK261778], for which the “% of control remaining” value is on record as 90.4227%.

With `COc1ccc(C(=O)C2=C(O)C(=O)N(CCN(C)C)C2c2cccc([N+](=O)[O-])c2)cc1C` (centres unmarked) [CBK264875], the “% of control remaining” value was 125.99%.

Turning to `COc1c(C)cnc(COC(=O)N2C[C@@H](C)O[C@@H](C)C2)c1C` [CBK200143], the “% of control remaining” value is 93.1451%.

As to `COc1ccc(Cl)cc1-n1c(-c2ccc3ccccc3n2)n[nH]c1=S` [CBK288382], the “% of control remaining” value was 148.737%.

For the compound `Fc1ccc(-c2n[nH]c(=S)n2CCCN2CCOCC2)cc1` [CBK267127], the “% of control remaining” value was 166.519%.

As to `CCOc1ccc(-c2ccnc(NCC3CCCOC3)n2)cc1C(=O)O` (centres unmarked) [CBK307694], the “% of control remaining” value turned out to be 135.212%.

For `O=C(COc1cccnc1)N1CCCC2(CCN(C(=O)Cc3c[nH]c4ccccc34)C2)C1` (centres unmarked) [CBK131608], the “% of control remaining” value is on record as 95.4719%.

With `CCN1CCCC1CN(Cc1ccncc1)Cc1ccoc1` (centres unmarked) [CBK283171], the “% of control remaining” value was determined as 109.616%.

For `CC/C(=C\c1sc2ccc3ccccc3c2[n+]1CCCS(=O)[O-])SC` [CBK264941], the “% of control remaining” value came to 112.393%.

With `O=C(CSc1ccc2nnc(-c3cccc(F)c3)n2n1)Nc1nccs1` [CBK287522], the “% of control remaining” value came to 149.736%.

For the compound `CCC(c1nc2ccccc2c(=O)n1CCCn1ccnc1)N1C(=O)c2ccccc2C1=O` (centres unmarked) [CBK268560], the “% of control remaining” value was 107.359%.

Regarding `CC(=O)[C@H]1CC[C@H]2[C@@H]3CC[C@H]4CC5(CC[C@]4(C)[C@H]3CC[C@]12C)N=C1C=C(C(C)(C)C)ON1C1C=CCC15` (some centres unmarked) [CBK303246], the “% of control remaining” value was determined as 51.3466%.

Regarding `CN(C)c1nc2c(c(=O)[nH]c(=O)n2C)n1Cc1cccc2ccccc12` [CBK140560], the “% of control remaining” value is listed as 143.967%.

As for `Cc1ccc(Cl)cc1N1CCN(CC(O)COCc2ccc3c(c2)OCO3)CC1` (centres unmarked) [CBK278308C], the “% of control remaining” value is recorded as 86.2653%.

In the case of `CN(Cc1c(C2CCNCC2)[nH]c2ncccc12)C1CCCCC1` [CBK285079], the “% of control remaining” value was determined as 129.949%.

`CCNC(=O)N1Cc2nc[nH]c2C[C@H]1C(=O)NCc1ccc(C#N)cc1` [CBK288975]: the “% of control remaining” value is 142.073%.

With `O=S(=O)(NCc1ccccc1)c1ccc(Cl)cc1` [CBK086159], the “% of control remaining” value came to 104.139%.

Values taken from article PMC12040169 (PLOS Biology, 2025).
